For at least one compound, name, drawing or mass did not settle the structure.
What was measured:
Assay type in all cases: in vivo, human
[1] = test system: sacroiliitis and peripheral oligoarthritis; test: Example 1: patient with sacroiliitis and peripheral oligoarthritis treated with oral budesonide; details: two months after withdrawal
Method: (§1) The invention is illustrated by the following examples where budesonide is administered orally using the Entocort™ preparation as described in EP-A-502092.
They were initially treated with 9 mg of budesonide once a day for the first four weeks and then the dose was reduced to 6 mg per day.
The normal value of morning stiffness is 0 min. The joint arthritic index was measured using the Lansbury index whose normal value is 0. The spinal movement was measured using Shober's Test whose normal value is from 5 to 6 cm. The joint pain at rest and in motion was estimated using a VAS (visual analogue scale) where 0 represents no pain and 10 very severe pain.

rheumatoid arthritis [2] = test: Example 8: patient with rheumatoid arthritis treated with oral budesonide
Method: as §1
A person had for 2 months suffered from rapidly progressive inflammations of the finger joints of both hands (metacarpophalangeal joints, proximal interphalangeal joints) and the wrists. The diagnosis was rheumatoid arthritis.

[3] = test system: HLA-B27 associated reactive arthritis; test: Example 4: patient with HLA-B27 associated reactive arthritis treated with oral budesonide; details: 9 mg once a day for three weeks
Method: as §1
wherein the Ritchie index is an alternative joint arthritic index.

rheumatoid arthritis [4] = test: Example 7: patient with rheumatoid arthritis treated with oral budesonide; details: 9 mg per day; follow up three weeks later
Method: The invention is illustrated by the following examples where budesonide is administered orally using the Entocort™ preparation as described in EP-A-502092. A person had suffered from joint swelling and joint pains for about 5 months. At admittance they had symmetric swelling of finger joints, both knees and left ankle. They were on treatment with diclofenac. The rheumatoid factor test was positive and the diagnosis was rheumatoid arthritis. Diclofenac treatment was stopped and they were given 9 mg of budesonide per day.

ankylosing spondylitis = test: Example 2: patient with ankylosing spondylitis treated with oral budesonide
Method: as §1
The tests were carried out in the same way as in Example 1 except that the laboratory inflammatory activity was measured using the ESR (erythrocyte sedimentation rate) whose normal value is less than 5 mm/h and the C-reactive protein plasma concentration which is usually less than 10 mg/litre.

[5] = test system: HLA-B27 associated sacroiliitis with peripheral arthropathies; test: Example 5: patient with HLA-B27 associated sacroiliitis with peripheral arthropathies treated with oral budesonide; details: 9 mg per day; clinical follow up 6 weeks after start
Method: as §1
A patient had suffered from a HLA-B27 associated sacroiliitis with peripheral arthropathies for 8 years. […] At admittance to the hospital they suffered from direct pains of the sacroiliac joints and inflammation of the left knee and left ankle.

rheumatoid arthritis [6] = test: Example 6: patient with rheumatoid arthritis treated with oral budesonide; details: 9 mg per day
Method: as §1

CCCC1O[C@@H]2C[C@H]3[C@@H]4CCC5=CC(=O)C=C[C@]5(C)[C@H]4[C@@H](O)C[C@]3(C)[C@]2(C(=O)CO)O1 (some centres unmarked) [budesonide]
Condition after withdrawal of the treatment [1]: their condition deteriorated
Condition overall (rheumatoid arthritis [2]; first clinical follow-up three weeks after start): their condition had begun to normalise
Condition overall, clinical and laboratory measurements (rheumatoid arthritis [2]; second follow-up three weeks later): further improved
Symptoms overall [3]: marked improvement in their symptoms
Tendinitis of the Achilles tendons ([3]; tendinitis of both Achilles tendons before): no tendinitis of the Achilles tendons
Condition overall (rheumatoid arthritis [4]): strikingly improved
Symptoms overall (ankylosing spondylitis; 9 mg once a day, one month after start of treatment): marked improvement in their symptoms
Condition after withdrawal of the treatment (ankylosing spondylitis; one month after total withdrawal): returned to how it was before the treatment had started
Condition overall [5]: considerably improved
Condition overall (rheumatoid arthritis [6]; after another 4 weeks (8 weeks)): further improved and they were able to return to work
Disease status overall (rheumatoid arthritis [6]; follow-up 4 weeks later): their disease was under control
